The results in this text go back to paper PMC6065395.

Protein sequences, listed by entry. Tags and fused reporters are not part of them. Lines headed by an entry give the natural chain unless they say otherwise; changes in a name come on top.
UniProt Q5BBF4: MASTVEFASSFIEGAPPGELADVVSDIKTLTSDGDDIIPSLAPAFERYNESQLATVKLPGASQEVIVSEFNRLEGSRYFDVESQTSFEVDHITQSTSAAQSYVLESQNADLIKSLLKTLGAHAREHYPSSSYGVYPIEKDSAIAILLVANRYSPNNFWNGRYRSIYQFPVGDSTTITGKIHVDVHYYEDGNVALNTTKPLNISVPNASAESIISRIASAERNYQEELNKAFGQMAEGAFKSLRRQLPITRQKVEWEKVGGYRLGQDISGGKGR
UniProt Q5BBX7: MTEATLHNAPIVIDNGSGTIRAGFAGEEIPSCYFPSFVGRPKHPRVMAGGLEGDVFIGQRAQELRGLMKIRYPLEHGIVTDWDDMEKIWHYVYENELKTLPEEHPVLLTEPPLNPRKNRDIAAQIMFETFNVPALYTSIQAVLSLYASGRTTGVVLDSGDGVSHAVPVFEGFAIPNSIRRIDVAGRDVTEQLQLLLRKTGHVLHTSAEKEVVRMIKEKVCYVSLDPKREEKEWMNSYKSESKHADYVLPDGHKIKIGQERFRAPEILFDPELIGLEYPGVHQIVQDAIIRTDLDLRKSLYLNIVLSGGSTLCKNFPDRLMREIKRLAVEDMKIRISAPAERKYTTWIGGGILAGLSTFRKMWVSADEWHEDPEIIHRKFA
UniProt P45444: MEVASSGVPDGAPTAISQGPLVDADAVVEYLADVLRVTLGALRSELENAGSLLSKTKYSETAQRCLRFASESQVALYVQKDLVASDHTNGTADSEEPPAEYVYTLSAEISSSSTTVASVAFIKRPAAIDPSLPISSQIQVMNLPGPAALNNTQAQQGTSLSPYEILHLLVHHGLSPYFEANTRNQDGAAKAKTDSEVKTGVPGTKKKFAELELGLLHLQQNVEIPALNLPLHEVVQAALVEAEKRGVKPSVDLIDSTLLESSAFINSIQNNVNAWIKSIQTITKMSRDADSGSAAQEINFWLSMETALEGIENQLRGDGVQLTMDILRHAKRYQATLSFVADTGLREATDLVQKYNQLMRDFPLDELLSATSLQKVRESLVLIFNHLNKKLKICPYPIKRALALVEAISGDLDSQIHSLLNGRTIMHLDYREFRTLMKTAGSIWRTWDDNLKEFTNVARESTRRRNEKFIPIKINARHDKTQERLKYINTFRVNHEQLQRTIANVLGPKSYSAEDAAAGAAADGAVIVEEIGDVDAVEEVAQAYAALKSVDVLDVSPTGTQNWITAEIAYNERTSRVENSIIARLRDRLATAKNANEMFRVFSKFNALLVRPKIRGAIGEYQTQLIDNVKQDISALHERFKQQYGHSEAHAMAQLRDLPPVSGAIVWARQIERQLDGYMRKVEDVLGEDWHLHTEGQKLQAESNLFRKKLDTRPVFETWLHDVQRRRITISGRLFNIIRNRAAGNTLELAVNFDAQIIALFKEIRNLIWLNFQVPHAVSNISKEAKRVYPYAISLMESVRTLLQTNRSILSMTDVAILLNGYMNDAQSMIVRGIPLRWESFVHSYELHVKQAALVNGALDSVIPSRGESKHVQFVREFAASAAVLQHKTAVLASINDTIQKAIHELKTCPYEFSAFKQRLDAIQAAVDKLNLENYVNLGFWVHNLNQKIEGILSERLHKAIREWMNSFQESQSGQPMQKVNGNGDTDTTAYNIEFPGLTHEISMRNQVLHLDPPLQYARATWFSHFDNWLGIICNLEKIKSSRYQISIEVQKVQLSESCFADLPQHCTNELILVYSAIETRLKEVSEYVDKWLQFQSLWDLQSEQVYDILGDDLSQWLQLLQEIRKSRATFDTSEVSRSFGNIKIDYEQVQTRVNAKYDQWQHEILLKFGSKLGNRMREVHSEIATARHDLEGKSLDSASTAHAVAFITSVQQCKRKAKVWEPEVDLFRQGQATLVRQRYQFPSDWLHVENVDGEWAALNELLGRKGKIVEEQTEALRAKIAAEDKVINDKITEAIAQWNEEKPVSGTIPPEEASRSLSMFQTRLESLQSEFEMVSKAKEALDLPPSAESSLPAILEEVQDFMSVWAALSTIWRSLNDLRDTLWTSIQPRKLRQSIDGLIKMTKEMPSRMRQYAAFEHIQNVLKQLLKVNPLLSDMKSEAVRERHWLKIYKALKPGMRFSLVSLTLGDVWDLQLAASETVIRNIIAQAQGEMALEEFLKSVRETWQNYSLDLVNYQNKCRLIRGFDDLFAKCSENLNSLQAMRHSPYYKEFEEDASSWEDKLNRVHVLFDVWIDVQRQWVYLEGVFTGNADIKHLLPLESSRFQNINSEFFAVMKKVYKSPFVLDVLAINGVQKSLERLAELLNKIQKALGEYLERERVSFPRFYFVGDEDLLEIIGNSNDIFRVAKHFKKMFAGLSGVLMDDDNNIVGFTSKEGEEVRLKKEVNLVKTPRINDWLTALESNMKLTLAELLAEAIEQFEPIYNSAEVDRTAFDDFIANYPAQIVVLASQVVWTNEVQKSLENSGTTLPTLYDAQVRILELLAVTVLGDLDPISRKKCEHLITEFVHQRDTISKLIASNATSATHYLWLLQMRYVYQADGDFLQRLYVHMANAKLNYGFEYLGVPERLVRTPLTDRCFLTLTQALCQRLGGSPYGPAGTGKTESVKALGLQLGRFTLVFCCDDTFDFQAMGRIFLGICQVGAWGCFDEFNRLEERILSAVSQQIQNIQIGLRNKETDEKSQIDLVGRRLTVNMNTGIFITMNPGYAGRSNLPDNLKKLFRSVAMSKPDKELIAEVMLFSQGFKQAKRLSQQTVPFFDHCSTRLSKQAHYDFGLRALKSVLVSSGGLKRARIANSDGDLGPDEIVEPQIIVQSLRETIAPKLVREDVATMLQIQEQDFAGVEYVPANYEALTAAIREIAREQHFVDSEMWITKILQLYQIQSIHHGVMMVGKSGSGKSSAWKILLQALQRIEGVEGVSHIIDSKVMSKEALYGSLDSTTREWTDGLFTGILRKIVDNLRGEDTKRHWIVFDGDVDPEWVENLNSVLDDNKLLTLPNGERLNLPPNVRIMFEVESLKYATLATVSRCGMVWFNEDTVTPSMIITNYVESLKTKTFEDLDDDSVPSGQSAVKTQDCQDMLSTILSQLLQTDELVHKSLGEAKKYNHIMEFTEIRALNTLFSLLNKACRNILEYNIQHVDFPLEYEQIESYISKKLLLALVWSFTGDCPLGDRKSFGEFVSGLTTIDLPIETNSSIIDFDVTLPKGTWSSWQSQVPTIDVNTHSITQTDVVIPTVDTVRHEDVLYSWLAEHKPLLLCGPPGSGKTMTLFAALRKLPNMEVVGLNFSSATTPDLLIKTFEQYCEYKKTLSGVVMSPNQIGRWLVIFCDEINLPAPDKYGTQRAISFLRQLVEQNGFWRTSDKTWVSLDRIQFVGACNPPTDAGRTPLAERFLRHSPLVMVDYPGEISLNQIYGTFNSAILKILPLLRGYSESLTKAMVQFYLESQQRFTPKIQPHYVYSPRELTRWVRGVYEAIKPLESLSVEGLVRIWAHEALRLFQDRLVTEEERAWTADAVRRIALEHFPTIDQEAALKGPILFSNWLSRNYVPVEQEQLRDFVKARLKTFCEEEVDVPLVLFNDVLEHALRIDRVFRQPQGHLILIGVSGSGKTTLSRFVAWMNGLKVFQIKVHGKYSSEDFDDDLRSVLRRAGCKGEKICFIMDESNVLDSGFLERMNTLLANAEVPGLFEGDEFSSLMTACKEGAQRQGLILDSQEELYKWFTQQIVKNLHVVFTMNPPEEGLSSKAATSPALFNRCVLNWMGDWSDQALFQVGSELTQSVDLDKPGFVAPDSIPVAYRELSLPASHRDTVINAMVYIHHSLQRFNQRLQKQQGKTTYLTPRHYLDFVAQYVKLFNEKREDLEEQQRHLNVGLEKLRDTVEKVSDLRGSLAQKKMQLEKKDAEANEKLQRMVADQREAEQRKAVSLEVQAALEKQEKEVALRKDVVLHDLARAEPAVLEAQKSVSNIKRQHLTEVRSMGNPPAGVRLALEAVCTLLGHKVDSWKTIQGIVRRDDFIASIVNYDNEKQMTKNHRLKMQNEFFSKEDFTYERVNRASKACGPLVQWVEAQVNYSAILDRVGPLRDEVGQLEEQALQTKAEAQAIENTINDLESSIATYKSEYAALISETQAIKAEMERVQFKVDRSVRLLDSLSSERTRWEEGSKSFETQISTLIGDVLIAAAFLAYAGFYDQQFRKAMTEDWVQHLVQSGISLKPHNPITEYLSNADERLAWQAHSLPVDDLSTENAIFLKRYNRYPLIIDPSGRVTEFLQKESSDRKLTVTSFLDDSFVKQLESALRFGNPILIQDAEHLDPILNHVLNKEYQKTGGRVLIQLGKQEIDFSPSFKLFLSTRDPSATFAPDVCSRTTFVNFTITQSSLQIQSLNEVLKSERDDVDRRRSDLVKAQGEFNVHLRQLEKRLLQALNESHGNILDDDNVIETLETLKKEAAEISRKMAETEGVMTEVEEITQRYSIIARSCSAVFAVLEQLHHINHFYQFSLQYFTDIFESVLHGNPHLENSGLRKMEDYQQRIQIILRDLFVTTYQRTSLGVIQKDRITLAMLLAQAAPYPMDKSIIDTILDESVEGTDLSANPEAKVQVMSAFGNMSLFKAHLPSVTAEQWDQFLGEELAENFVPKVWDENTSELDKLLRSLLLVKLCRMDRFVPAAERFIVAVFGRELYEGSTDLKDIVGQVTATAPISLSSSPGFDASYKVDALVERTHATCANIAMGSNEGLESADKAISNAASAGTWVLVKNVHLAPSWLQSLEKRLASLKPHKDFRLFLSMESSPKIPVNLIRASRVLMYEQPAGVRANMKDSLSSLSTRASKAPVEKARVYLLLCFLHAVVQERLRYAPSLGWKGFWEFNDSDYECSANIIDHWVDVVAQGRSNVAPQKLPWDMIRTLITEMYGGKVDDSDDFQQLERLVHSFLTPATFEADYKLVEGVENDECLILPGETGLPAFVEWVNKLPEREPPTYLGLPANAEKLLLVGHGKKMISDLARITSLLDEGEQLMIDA

For this test, the target named is CapA-GFP fusion (A. nidulans) (UniProt Q5BBF4). Briefly: co-IP; CapA-GFP held on anti-GFP MicroBeads from cell extract; western blots with antibodies against p150, Arp1 and dynein HC; strain without GFP tag as negative control. On the technique in general: A western blot detects proteins with antibodies after separation by electrophoresis.

No constants are given. Whether binding was seen depends on the method and setting. In cells and extracts the contact can be indirect. Binding calls can cover weak binding; strength is not graded here.

As for “Arp1 (actin-related protein 1) (from UniProt Q5BBX7)”, the binding entry is “binds”.

In the case of “dynein heavy chain (HC) (from UniProt P45444 1-4345)”, the binding entry is “binds”.
